# The list shows a part of the results.
# Protein sequences, listed by entry. Tags and fused reporters are not part of them.
# UniProt Q0JBA9, entry or part of it: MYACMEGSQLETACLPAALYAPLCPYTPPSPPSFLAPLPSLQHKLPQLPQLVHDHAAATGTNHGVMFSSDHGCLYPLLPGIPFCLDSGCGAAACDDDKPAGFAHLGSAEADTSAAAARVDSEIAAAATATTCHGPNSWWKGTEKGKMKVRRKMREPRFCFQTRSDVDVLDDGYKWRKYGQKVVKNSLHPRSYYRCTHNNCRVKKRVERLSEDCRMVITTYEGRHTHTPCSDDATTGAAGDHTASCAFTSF
# Target: OsWRKY34 (Oryza sativa, UniProt Q0JBA9 1-250)
# Assay: protein-binding microarray (RPBM); PBS, 2% BSA, 51.3 ng/ul salmon testes DNA, 50 uM zinc acetate, 200 nM TF, 25 C, 1 h; high values mean tight binding
# Details: protein: recombinant; tags: N-terminal polyhistidine and DsRed monomer fusion (pET32a); label: CyDye5-dUTP incorporated in the synthesized complementary strand; 3' TTTTT single-stranded linker to array surface; dsDNA, one strand shown
# Outline: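 The binding signal is fluorescence intensity per array feature (arbitrary units). Readings came from an Axon 4000B scanner after a washed, 2% BSA-blocked, double-stranded custom Agilent array had been incubated for 1 h at 25 °C with 200 nM protein and 50 µM zinc acetate. The protein was a Ni–NTA-purified transcription factor fused N-terminally to polyhistidine and DsRed, expressed in E. coli BL21-CodonPlus.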
row,Sequence,binding signal
1,TCTACATCATCGCCGAAGCCGCCGCTTGCCCGTACGCTGCCGGAGTCACCTAGTGCAG,8570 fluorescence intensity (a.u.)
2,ACCCCGACCACGACCACGCTGGAAACTTCCCAACCCCTAGCGGAGTCACCTAGTGCAG,8290 fluorescence intensity (a.u.)
3,AGGAGAGGGGTTTACTCGGTTGAGGATTTTCTTGTTCTCACGGAGTCACCTAGTGCAG,8180 fluorescence intensity (a.u.)
4,TCGATTTCCTGAATCGAGGGTGCGTTTGGTGGGAAAATTACGGAGTCACCTAGTGCAG,9260 fluorescence intensity (a.u.)
5,CACTCTTTCCTTCCTTACAATTCCAAACTTTACACTTCTACGGAGTCACCTAGTGCAG,8220 fluorescence intensity (a.u.)
6,GTTCGTCCCCAACGCCACGCCGCCACCAACCGCGCCGCCCCGGAGTCACCTAGTGCAG,8500 fluorescence intensity (a.u.)
7,CTCGCATGCCATTTTCCATGTACGCAAGTACCTCACATACCGGAGTCACCTAGTGCAG,10600 fluorescence intensity (a.u.)
8,TCTCCTCTGGTCCTGCCTACCACTTTGGCTGCCCATGCACCGGAGTCACCTAGTGCAG,9760 fluorescence intensity (a.u.)
9,ACTCATCATCTTTGTTTCTACATATCCTTTAATACTCTCCCGGAGTCACCTAGTGCAG,9830 fluorescence intensity (a.u.)
10,ATAAGACGAACTGTTAAATATGTTTAAAAAAGTCAACGGCCGGAGTCACCTAGTGCAG,8810 fluorescence intensity (a.u.)
11,CTTCCTTCTTGTTTGTTATCGTATGCCCATGGCGACTCCTCGGAGTCACCTAGTGCAG,10900 fluorescence intensity (a.u.)
12,CGTTGTCCTTTTTTTCTCTCTTTCTTCTTCTTCTTCTTCTCGGAGTCACCTAGTGCAG,15500 fluorescence intensity (a.u.)
13,ACTGGTAAATACTCCCTTTTGTTTGAATTCACACTGCACCCGGAGTCACCTAGTGCAG,9790 fluorescence intensity (a.u.)
14,CTCTGCTTTGCTTGCTTCTTCACCCAACTACCACCACCTCCGGAGTCACCTAGTGCAG,8940 fluorescence intensity (a.u.)
15,CGTCTTAGTTACCCTTCTACTCCTATCGCTCGATCGCCTCCGGAGTCACCTAGTGCAG,8380 fluorescence intensity (a.u.)
16,CTCGTGCTACATGTTTGTACTTTGTCCCTATTTAAATCCCCGGAGTCACCTAGTGCAG,8700 fluorescence intensity (a.u.)
17,GTAGAGCCACCCTGATGGACGGTAGACATGACCCTTACCACGGAGTCACCTAGTGCAG,8460 fluorescence intensity (a.u.)
18,TTAACTGAAACCATTCGATTCATCATTGTTTTATACTAGTCGGAGTCACCTAGTGCAG,9480 fluorescence intensity (a.u.)
19,TCTGTTAGTCTCTGCCACGAACGCACGAGCACTGCATCTCCGGAGTCACCTAGTGCAG,9870 fluorescence intensity (a.u.)
20,ATATATATATATATATATATATTGATGATTTAATGAAACTCGGAGTCACCTAGTGCAG,9020 fluorescence intensity (a.u.)
21,CACTCCCGTAACCGATTCGCTTTCACACGACACCGCGACGCGGAGTCACCTAGTGCAG,8310 fluorescence intensity (a.u.)
22,TAGATTTATAGTACTAGGATATGTCACATCATTTGTTTTTCGGAGTCACCTAGTGCAG,10200 fluorescence intensity (a.u.)
23,GGGTTAATCGGGTCTACACGCGTGACATGCGCCGCAACGACGGAGTCACCTAGTGCAG,11200 fluorescence intensity (a.u.)
24,CTGAATGGCTATTGTCTATGTGGTATATTTGGTTGTTGCTCGGAGTCACCTAGTGCAG,8840 fluorescence intensity (a.u.)
25,CTCCGCCTCAAACCTCGCGCGCTCCCGCGTCGCGCGCCGCCGGAGTCACCTAGTGCAG,8060 fluorescence intensity (a.u.)
26,GGCTTTTCTTGGGCTTAATGGGCTGCACATACTTCCACCGCGGAGTCACCTAGTGCAG,10300 fluorescence intensity (a.u.)
27,ATTTTTATTTATGCATGATGTCATTGTTCCATTAATTTCTCGGAGTCACCTAGTGCAG,9410 fluorescence intensity (a.u.)

# 4 entries from above in a different format:
row	Sequence	binding signal
17	GTAGAGCCACCCTGATGGACGGTAGACATGACCCTTACCACGGAGTCACCTAGTGCAG	8460 fluorescence intensity (a.u.)
20	ATATATATATATATATATATATTGATGATTTAATGAAACTCGGAGTCACCTAGTGCAG	9020 fluorescence intensity (a.u.)
23	GGGTTAATCGGGTCTACACGCGTGACATGCGCCGCAACGACGGAGTCACCTAGTGCAG	11200 fluorescence intensity (a.u.)
24	CTGAATGGCTATTGTCTATGTGGTATATTTGGTTGTTGCTCGGAGTCACCTAGTGCAG	8840 fluorescence intensity (a.u.)

# The results go on:

row,Sequence,binding signal
1,CCCCTACTATTTTCTAGGCTAGGAAGCGTGCGATCTTTTCCGGAGTCACCTAGTGCAG,8280 fluorescence intensity (a.u.)
2,CGGCTGGTGTAGCTCAGTTCGTACGTGTTCTGCCTTTATACGGAGTCACCTAGTGCAG,11000 fluorescence intensity (a.u.)
3,GATTCGCCACCGCGAATCCCACCACCACCCGCAGATCTCCCGGAGTCACCTAGTGCAG,8420 fluorescence intensity (a.u.)
4,TCCCCACCAGATTACACTACCATTCCACCTAGCTTAATTTCGGAGTCACCTAGTGCAG,11200 fluorescence intensity (a.u.)
5,GTGTAACTTGTTTTGCTAGGGTTTTTGATTGCTTTTTACTCGGAGTCACCTAGTGCAG,12000 fluorescence intensity (a.u.)
6,ATATAACAGGGCGTAAATTTTTGGGTGGGATCTAAACCGGCGGAGTCACCTAGTGCAG,10600 fluorescence intensity (a.u.)
7,CGGCGGCGGCGGCGGCGGCGGCGGAGGTGGTGTGGGTGGGCGGAGTCACCTAGTGCAG,8220 fluorescence intensity (a.u.)
8,GTCTCTCTTTCTTCTAGCTCTCTCTCTCTCTCTCTCTCTCCGGAGTCACCTAGTGCAG,9780 fluorescence intensity (a.u.)
9,AACTCCAAACACTTACATCCCGTTATAACGCACGAGTACTCGGAGTCACCTAGTGCAG,9280 fluorescence intensity (a.u.)
10,CTTAGTTCTCCGCGCTATTCACTTCTGCGCCGTCGCTTTTCGGAGTCACCTAGTGCAG,8640 fluorescence intensity (a.u.)
11,TTGGTTATGATGTGGGACTGCCCAGCATTTGCTCCTCAAGCGGAGTCACCTAGTGCAG,8420 fluorescence intensity (a.u.)
12,GTTATCTTCTTCCCCGATGCATGCATCATCATTTCCTCGCCGGAGTCACCTAGTGCAG,9200 fluorescence intensity (a.u.)
13,ATTTAGCCGCACCCTTCGTCTCTCCACCCAAACCAAAACCCGGAGTCACCTAGTGCAG,9710 fluorescence intensity (a.u.)
14,GTCCAATCTTGTCACCCGGCATCCTTGATCGCTTTGGACCCGGAGTCACCTAGTGCAG,8180 fluorescence intensity (a.u.)
15,TCGCCAACACCAACCTAGTCACTAGATCATCGGCTTGTCTCGGAGTCACCTAGTGCAG,8910 fluorescence intensity (a.u.)
16,TCCTCATCCCTGCTTCCTCTTCTACACCTCATTTTCCGCTCGGAGTCACCTAGTGCAG,10900 fluorescence intensity (a.u.)
17,AAAATCTTGACATAAACCAACACATTAGACCTTTCGTCTTCGGAGTCACCTAGTGCAG,8090 fluorescence intensity (a.u.)
18,GGGTTAGGGTTGGGGCGCCCATCTCCATCTGGCGAGCAGACGGAGTCACCTAGTGCAG,9270 fluorescence intensity (a.u.)
19,ATTCGTCTCACAATTTACATGCAAACTGTGCAATTGGTTTCGGAGTCACCTAGTGCAG,8070 fluorescence intensity (a.u.)
20,TATATATCTGGGTGATTGGTGGTGAGTAGTTGTTCTTGCTCGGAGTCACCTAGTGCAG,11400 fluorescence intensity (a.u.)
21,GCCCCTTCATGCCGATATCCGGGCTTGTCGCCTCCACACCCGGAGTCACCTAGTGCAG,8970 fluorescence intensity (a.u.)
22,CGCACACGCCTTGCACGACGCACTCATGCGCACCTGCTCCCGGAGTCACCTAGTGCAG,9670 fluorescence intensity (a.u.)
23,CAATTGGTTGGGTTTCTTGTGCCTACCTGTGTTTAAGTTCCGGAGTCACCTAGTGCAG,9160 fluorescence intensity (a.u.)
24,ACTTTCTAGCATTACCCACATTCACATATATGTTAATAAACGGAGTCACCTAGTGCAG,8350 fluorescence intensity (a.u.)
25,CCTTTAATAGGTCAAGCCTTTTCTATTTACCCCTGTTCAACGGAGTCACCTAGTGCAG,10300 fluorescence intensity (a.u.)
26,CATAGTATTAGGATGTGTCATATGCCATATTGGTTTTTTTCGGAGTCACCTAGTGCAG,9040 fluorescence intensity (a.u.)
27,GGCTAGTGACTGTGGGGTTCAGCTTACTAGCCACCTTTATCGGAGTCACCTAGTGCAG,9680 fluorescence intensity (a.u.)

# Reference: paper PMC7819943, “Rice protein-binding microarrays: a tool to detect cis-acting elements near promoter regions in rice”
